According to patent publication US20150051171A1, “TETRAZOLINONE COMPOUNDS AND ITS USE AS PESTICIDES” (SUMITOMO CHEMICAL COMPANY, LIMITED, priority 2012, published 2015):
Some results were stated once for a whole list of compounds, not compound by compound.

Test system: wheat rust fungi (Puccinia recondita)
Assay: Wheat rust control on wheat, foliar spray before inoculation (Test Examples 4-6)
Format: in vivo
Settings: wheat (cv; Shirogane), inoculated 5 days after spraying

## CCc1cccc(-n2nnn(C)c2=O)c1COc1ccn(-c2ccccc2OC)n1 [Present compound 88, 1-(2-{[1-(2-methoxyphenyl)-1H-pyrazole-3-yl]oxymethyl}-3-ethylphenyl)-4-methyl-1,4-dihydrotetrazole-5-one]
500 ppm foliar spray
  lesion area compared to the lesion area in untreated plants: ≤ 30%

## CCc1cccc(-n2nnn(C)c2=O)c1COc1ccn(-c2ccc(OC)cc2)n1 [Present compound 58, 1-(2-{[1-(4-methoxyphenyl)-1H-pyrazole-3-yl]oxymethyl}-3-ethylphenyl)-4-methyl-1,4-dihydrotetrazole-5-one]
200 ppm foliar spray
  lesion area compared to the lesion area in untreated plants: ≤ 30%

## Cc1cccc(-n2nnn(C)c2=O)c1COc1ccn(-c2ccc(Br)cc2)n1 [Present compound 46, 1-(2-{[1-(4-bromophenyl)-1H-pyrazole-3-yl]oxymethyl}-3-methylphenyl)-4-methyl-1,4-dihydrotetrazole-5-one]
500 ppm foliar spray
  lesion area compared to the lesion area in untreated plants: ≤ 30%

## Cc1cccc(-n2nnn(C)c2=O)c1COc1ccn(C(C)(C)C)n1 [Present compound 15, 1-(2-{[1-(1,1-dimethylethyl)-1H-pyrazole-3-yl]oxymethyl}-3-methylphenyl)-4-methyl-1,4-dihydrotetrazole-5-one]
500 ppm foliar spray
  lesion area compared to the lesion area in untreated plants: ≤ 30%

## Cc1cccc(-n2nnn(C)c2=O)c1COc1ccn(-c2ccc(C(F)(F)F)cc2)n1 [Present compound 91, 1-(2-{[1-(4-trifluoromethylphenyl)-1H-pyrazole-3-yl]oxymethyl}-3-methylphenyl)-4-methyl-1,4-dihydrotetrazole-5-one]
200 ppm foliar spray
  lesion area compared to the lesion area in untreated plants: ≤ 30%

## Cc1cccc(-n2nnn(C)c2=O)c1COc1ccn(-c2cccc(Cl)c2)n1 [Present compound 72, 1-(2-{[1-(3-chlorophenyl)-1H-pyrazole-3-yl]oxymethyl}-3-methylphenyl)-4-methyl-1,4-dihydrotetrazole-5-one]
200 ppm foliar spray
  lesion area compared to the lesion area in untreated plants: ≤ 30%

## Cc1ccc(-n2ccc(OCc3c(C4CC4)cccc3-n3nnn(C)c3=O)n2)cc1 [Present compound 60, 1-(2-{[1-(4-methylphenyl)-1H-pyrazole-3-yl]oxymethyl}-3-cyclopropylphenyl)-4-methyl-1,4-dihydrotetrazole-5-one]
200 ppm foliar spray
  lesion area compared to the lesion area in untreated plants: ≤ 30%

## COc1ccc(-n2ccc(OCc3c(C4CC4)cccc3-n3nnn(C)c3=O)n2)cc1 [Present compound 59, 1-(2-{[1-(4-methoxyphenyl)-1H-pyrazole-3-yl]oxymethyl}-3-cyclopropylphenyl)-4-methyl-1,4-dihydrotetrazole-5-one]
500 ppm foliar spray
  lesion area compared to the lesion area in untreated plants: ≤ 30%

## COc1cc(Cl)ccc1-n1ccc(OCc2c(C)cccc2-n2nnn(C)c2=O)n1 [Present compound 96, 1-(2-{[1-(4-chloro-2-methoxyphenyl)-1H-pyrazole-3-yl]oxymethyl}-3-methylphenyl)-4-methyl-1,4-dihydrotetrazole-5-one]
500 ppm foliar spray
  lesion area compared to the lesion area in untreated plants: ≤ 30%

## COc1ccccc1-n1ccc(OCc2c(C3CC3)cccc2-n2nnn(C)c2=O)n1 [Present compound 89, 1-(2-{[1-(2-methoxyphenyl)-1H-pyrazole-3-yl]oxymethyl}-3-cyclopropylphenyl)-4-methyl-1,4-dihydrotetrazole-5-one]
200 ppm foliar spray
  lesion area compared to the lesion area in untreated plants: ≤ 30%

## Cc1cccc(-n2nnn(C)c2=O)c1COc1ccn(-c2ccc(OC(F)(F)F)cc2)n1 [Present compound 51, 1-(2-{[1-(4-trifluoromethoxyphenyl)-1H-pyrazole-3-yl]oxymethyl}-3-methylphenyl)-4-methyl-1,4-dihydrotetrazole-5-one]
200 ppm foliar spray
  lesion area compared to the lesion area in untreated plants: ≤ 30%

## COc1ccccc1-n1ccc(OCc2c(Cl)cccc2-n2nnn(C)c2=O)n1 [Present compound 86, 1-(2-{[1-(2-methoxyphenyl)-1H-pyrazole-3-yl]oxymethyl}-3-chlorophenyl)-4-methyl-1,4-dihydrotetrazole-5-one]
200 ppm foliar spray
  lesion area compared to the lesion area in untreated plants: ≤ 30%
